In PMC4980550, “Structural Basis for Plexin Activation and Regulation” (Neuron, 2016):
Results are given in words; binding and its absence hold for the method and conditions named.

Amino acid sequences for entries named in this document (tags omitted). A change or cut given only in a name is not applied to a line headed by its entry. Chains listed by the source or under a name are the forms on record and can include a tag or linker.
PlxnA1_(1-10) F145N/L147S (P70206, form named): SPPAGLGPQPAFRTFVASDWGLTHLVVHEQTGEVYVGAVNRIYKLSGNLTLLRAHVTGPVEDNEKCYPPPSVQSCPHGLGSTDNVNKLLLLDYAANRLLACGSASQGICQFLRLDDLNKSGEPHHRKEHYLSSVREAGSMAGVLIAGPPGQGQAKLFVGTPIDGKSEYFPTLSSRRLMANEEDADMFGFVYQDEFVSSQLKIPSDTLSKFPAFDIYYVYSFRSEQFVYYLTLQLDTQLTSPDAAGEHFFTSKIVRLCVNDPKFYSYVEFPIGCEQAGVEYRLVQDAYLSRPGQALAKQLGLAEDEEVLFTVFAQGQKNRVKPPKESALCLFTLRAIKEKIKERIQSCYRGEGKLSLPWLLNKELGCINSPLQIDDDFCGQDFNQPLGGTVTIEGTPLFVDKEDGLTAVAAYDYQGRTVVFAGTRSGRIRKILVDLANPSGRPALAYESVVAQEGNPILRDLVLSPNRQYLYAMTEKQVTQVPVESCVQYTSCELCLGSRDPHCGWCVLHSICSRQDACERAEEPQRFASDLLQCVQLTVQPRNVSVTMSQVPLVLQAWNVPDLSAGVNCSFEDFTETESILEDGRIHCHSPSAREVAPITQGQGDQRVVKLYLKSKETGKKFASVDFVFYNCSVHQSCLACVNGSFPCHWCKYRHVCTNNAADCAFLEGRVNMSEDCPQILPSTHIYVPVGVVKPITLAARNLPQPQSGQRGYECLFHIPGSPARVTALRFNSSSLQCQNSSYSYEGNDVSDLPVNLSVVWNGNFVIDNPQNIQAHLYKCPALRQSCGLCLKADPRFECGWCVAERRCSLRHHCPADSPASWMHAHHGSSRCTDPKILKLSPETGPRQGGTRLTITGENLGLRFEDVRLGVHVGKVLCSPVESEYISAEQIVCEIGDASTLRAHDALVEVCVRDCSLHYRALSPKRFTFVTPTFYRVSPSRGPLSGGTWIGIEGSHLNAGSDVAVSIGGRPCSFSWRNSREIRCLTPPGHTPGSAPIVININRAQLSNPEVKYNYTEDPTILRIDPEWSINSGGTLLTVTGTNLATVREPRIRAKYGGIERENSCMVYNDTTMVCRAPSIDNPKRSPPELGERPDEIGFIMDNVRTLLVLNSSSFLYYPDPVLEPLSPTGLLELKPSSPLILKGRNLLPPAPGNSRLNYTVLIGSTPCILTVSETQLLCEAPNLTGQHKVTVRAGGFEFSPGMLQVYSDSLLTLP
PlxnA1_(1-10) F693N/E695S (P70206, form named): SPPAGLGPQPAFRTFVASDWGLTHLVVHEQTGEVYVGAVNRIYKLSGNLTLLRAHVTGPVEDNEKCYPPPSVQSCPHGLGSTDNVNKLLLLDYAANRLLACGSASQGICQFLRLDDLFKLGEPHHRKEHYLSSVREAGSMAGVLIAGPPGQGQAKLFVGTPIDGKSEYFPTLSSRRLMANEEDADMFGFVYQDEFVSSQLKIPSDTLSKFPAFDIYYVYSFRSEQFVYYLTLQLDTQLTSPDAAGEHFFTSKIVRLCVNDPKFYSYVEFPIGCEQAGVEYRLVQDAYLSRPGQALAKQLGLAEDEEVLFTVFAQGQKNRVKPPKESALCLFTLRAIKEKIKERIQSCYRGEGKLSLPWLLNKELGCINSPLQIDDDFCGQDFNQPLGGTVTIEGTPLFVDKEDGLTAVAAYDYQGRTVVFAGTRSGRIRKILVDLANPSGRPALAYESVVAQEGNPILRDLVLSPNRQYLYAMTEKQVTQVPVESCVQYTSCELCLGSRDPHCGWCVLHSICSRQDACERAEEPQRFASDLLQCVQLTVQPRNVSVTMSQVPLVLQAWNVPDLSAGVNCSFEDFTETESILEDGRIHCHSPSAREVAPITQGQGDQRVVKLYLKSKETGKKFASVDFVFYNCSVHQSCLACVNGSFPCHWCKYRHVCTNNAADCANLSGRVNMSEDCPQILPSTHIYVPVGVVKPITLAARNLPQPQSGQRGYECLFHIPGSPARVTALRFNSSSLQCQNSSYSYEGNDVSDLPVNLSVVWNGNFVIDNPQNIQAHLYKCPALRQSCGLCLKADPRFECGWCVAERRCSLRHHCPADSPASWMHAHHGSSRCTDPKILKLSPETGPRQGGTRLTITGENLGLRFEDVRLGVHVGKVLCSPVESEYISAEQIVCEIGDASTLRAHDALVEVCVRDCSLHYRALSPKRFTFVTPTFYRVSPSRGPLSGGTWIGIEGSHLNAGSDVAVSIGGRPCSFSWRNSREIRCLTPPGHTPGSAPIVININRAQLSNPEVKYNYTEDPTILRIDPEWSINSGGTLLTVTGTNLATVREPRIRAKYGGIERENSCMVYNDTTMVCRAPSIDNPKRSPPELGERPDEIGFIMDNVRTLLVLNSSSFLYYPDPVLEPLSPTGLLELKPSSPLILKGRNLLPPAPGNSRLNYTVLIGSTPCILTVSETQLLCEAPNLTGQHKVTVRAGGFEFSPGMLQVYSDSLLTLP

Columns and labels:
[1] = molecular target: PlxnA1_(1-10) F145N/L147S (mouse) (UniProt P70206); assay: SEC-MALS; analytical Superdex S200 10/30 column coupled to static light-scattering, differential refractive index and UV detectors; both purified
[2] = molecular target: PlxnA1_(1-10) F693N/E695S (mouse) (UniProt P70206); assay: AUC; sedimentation velocity, 40,000 rpm, absorbance at 280 nm, c(s) analysis; protein at 7.0 μM (1 mg/ml); both purified
[3] = molecular target: PlxnA1_(1-10) F693N/E695S (mouse) (UniProt P70206); assay: AUC; sedimentation velocity, 40,000 rpm, absorbance at 280 nm, c(s) analysis; protein at 28.1 μM (4 mg/ml); both purified
[4] = molecular target: PlxnA1_(1-10) F693N/E695S (mouse) (UniProt P70206); assay: SEC-MALS; analytical Superdex S200 10/30 column coupled to static light-scattering, differential refractive index and UV detectors; both purified

| binding [1] | binding [2] | binding [3] | binding [4] | Substance |
| --- | --- | --- | --- | --- |
| no binding |  |  |  | PlxnA1_(1-10) F145N/L147S (from UniProt P70206 28-1242) (domain or fragment) |
|  | no binding (tested: 7.0 μM) | no binding (tested: 28.1 μM) | no binding | PlxnA1_(1-10) F693N/E695S (from UniProt P70206 28-1242) (domain or fragment) |
